PubChem BioAssay AID743458, Peter MacCallum Cancer Centre | 2014

Screen: 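Retest earlier hits with independent siRNAs per gene for restoring vorinostat sensitivity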 (follow-up of hits)
Cells: human HCT116-VR colon cancer cells made resistant to vorinostat
Reagent: single siRNA or pool against human genes, 25 nM per single siRNA
Duration: about 72 h after transfection, including 24 h of drug
Treatment: vorinostat, 2.5 µM final, for 24 h
Measurement: 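Live-cell fluorescent viability and luminescent caspase 3/7 activity after vorinostat treatment, background subtracted, mean of duplicate plates, as fold change over mock-transfected wells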
Direction: viability relative to mock: higher = more living cells than mock; caspase activity relative to mock: higher = more apoptosis than mock
Hit rule: 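Active means a reduced-viability or caspase-activation class, anything else inactive; classes could only be given to wells that looked healthy when left untreated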
The deposit covers about 1,800 reagents; shown is a part drawn at random. 732 of all reagents (41%) count as active. 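Calls are per siRNA reagent; a gene was deemed confirmed only if most of its four siRNAs scored.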 The numbers tell different reagents against one gene apart. Reagent sequences are not shown.

no.	gene	reagent no.	viability relative to mock	caspase activity relative to mock	viability hit class	caspase hit class	activity call
1	PGAM1	1	0.9	1.36	no change	no change	inactive
2	PGAM1	2	0.54	3.67	reduced viability	caspase activation	active
3	PGAM1	3	0.96	1.12	no change	no change	inactive
4	PGAM1	4	1.08	1.09	no change	no change	inactive
5	SERPINB13	1	1.04	1.31	no change	no change	inactive
6	SERPINB13	2	0.92	1.19	no change	no change	inactive
7	SERPINB13	3	0.71	1.58	no change	no change	inactive
8	SERPINB13	4	0.24	3.62	reduced viability	caspase activation	active

Records listed so far called active, once more:
gene	reagent no.	viability relative to mock	caspase activity relative to mock	viability hit class	caspase hit class	activity call
PGAM1	2	0.54	3.67	reduced viability	caspase activation	active
SERPINB13	4	0.24	3.62	reduced viability	caspase activation	active

Further reagents:
no.	gene	reagent no.	viability relative to mock	caspase activity relative to mock	viability hit class	caspase hit class	activity call
9	ING2	1	0.9	0.92	no change	no change	inactive
10	ING2	2	1	1.31	no change	no change	inactive
11	ING2	3	1.08	1.04	no change	no change	inactive
12	ING2	4	0.42	4.45	reduced viability	caspase activation	active
13	NUDT10	1	0.85	1.37	no change	no change	inactive
14	NUDT10	2	1.13	1.8	no change	no change	inactive
15	NUDT10	3	0.36	1.65	reduced viability	no change	active
16	NUDT10	4	0.34	3.92	reduced viability	caspase activation	active
17	PKLR	1	0.72	1.29	no change	no change	inactive
18	PKLR	2	0.92	1.01	no change	no change	inactive
19	PKLR	3	0.74	6.6	no change	caspase activation	active
20	PKLR	4	1.08	1.36	no change	no change	inactive
21	COL9A1	1	0.36	5.3	no change	no change	inactive
22	COL9A1	2	0.94	2.17	no change	no change	inactive
23	COL9A1	3	0.86	1.06	no change	no change	inactive
24	COL9A1	4	0.9	2.05	no change	no change	inactive
